Drawing on publication PMC7915802, this text covers binding for one molecule.

Protein sequences, listed by entry. Tags and fused reporters are not part of them.
UniProt Q9C0C7: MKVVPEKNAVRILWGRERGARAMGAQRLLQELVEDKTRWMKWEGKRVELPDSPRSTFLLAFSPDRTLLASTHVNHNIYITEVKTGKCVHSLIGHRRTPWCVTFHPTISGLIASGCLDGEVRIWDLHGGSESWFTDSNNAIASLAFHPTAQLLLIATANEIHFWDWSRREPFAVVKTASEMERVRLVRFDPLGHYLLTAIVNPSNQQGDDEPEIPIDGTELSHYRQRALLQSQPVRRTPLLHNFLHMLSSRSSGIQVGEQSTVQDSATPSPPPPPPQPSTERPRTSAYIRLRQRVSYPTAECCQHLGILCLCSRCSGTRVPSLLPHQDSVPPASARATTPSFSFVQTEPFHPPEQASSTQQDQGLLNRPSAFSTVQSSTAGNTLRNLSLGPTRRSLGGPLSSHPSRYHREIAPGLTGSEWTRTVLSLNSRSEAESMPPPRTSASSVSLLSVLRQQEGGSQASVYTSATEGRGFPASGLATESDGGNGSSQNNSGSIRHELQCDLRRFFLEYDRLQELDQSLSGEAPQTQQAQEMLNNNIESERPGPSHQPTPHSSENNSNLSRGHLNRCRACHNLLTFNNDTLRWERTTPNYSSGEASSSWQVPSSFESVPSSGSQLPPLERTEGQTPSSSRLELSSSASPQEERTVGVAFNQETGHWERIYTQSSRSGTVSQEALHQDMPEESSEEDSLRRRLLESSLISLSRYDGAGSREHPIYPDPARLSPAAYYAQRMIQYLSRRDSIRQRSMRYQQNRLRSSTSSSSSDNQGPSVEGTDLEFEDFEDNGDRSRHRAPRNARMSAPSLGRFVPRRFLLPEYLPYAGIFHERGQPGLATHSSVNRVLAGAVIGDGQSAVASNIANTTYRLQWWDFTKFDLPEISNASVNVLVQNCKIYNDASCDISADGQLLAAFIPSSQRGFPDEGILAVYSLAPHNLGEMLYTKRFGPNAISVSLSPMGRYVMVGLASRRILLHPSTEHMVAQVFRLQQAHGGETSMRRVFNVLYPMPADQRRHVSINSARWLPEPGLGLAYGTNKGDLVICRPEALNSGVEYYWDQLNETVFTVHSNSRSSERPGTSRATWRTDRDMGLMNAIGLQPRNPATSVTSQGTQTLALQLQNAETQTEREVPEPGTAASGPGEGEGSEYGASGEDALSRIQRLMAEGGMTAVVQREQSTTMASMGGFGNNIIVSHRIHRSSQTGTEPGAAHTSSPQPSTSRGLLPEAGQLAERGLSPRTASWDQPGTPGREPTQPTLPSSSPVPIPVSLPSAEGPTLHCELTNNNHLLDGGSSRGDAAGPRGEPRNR

The target of test [1] is AMBRA1 (human (endogenous in 2FTGH fibroblasts and SK-N-BE2 cells)) (UniProt Q9C0C7). The experiment in a line: co-IP; SK-N-BE2 (SKNB-E-2) neuroblastoma cells, untreated or treated with HBSS 1 h; lysis in 10 mM Tris-HCl pH 8.0, 150 mM NaCl, 1% Nonidet P-40; immunoprecipitation with rabbit anti-AMBRA1 PAb and protein G-acrylic beads at 4 °C; Western blot of the immunoprecipitates. A general note: Immunoblotting shows a protein as a band on a membrane.

Test [2] has the same target. Kind of test: co-IP; human 2FTGH fibroblasts, untreated or treated with HBSS 1 h at 37 °C; lysis in 10 mM Tris-HCl pH 8.0, 150 mM NaCl, 1% Nonidet P-40; immunoprecipitation with rabbit anti-AMBRA1 PAb and protein G-acrylic beads at 4 °C; Western blot of the immunoprecipitates.

No constants are given. Whether binding was seen depends on the method and setting. Binding seen in cells or lysates may run through a third protein. Some entries that bind do so weakly or less than the wild type.

B1: WIPI1 (protein, UniProt Q5MNZ9 1-446)
chain: MEAEAADAPPGGVESALSCFSFNQDCTSLATGTKAGYKLFSLSSVEQLDQVHGSNEIPDVYIVERLFSSSLVVVVSHTKPRQMNVYHFKKGTEICNYSYSSNILSIRLNRQRLLVCLEESIYIHNIKDMKLLKTLLDIPANPTGLCALSINHSNSYLAYPGSLTSGEIVLYDGNSLKTVCTIAAHEGTLAAITFNASGSKLASASEKGTVIRVFSVPDGQKLYEFRRGMKRYVTISSLVFSMDSQFLCASSNTETVHIFKLEQVTNSRPEEPSTWSGYMGKMFMAATNYLPTQVSDMMHQDRAFATARLNFSGQRNICTLSTIQKLPRLLVASSSGHLYMYNLDPQDGGECVLIKTHSLLGSGTTEENKENDLRPSLPQSYAATVARPSASSASTVPGYSEDGGALRGEVIPEHEFATGPVCLDDENEFPPIILCRGNQKGKTKQS
As for B1, the binding result in test [1] and in test [2] was “binds” throughout.
